Experimental data reported in article PMC7293217, “TECPR1 promotes aggrephagy by direct recruitment of LC3C autophagosomes to lysosomes” (Nature Communications, 2020).

By UniProt entry, the sequences of proteins in these tests, tags left out. Residues count along the entry.
UniProt P60520: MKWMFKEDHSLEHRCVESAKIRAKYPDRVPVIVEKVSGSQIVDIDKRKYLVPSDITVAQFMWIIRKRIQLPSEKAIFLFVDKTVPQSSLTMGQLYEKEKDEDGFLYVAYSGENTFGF
UniProt O95166: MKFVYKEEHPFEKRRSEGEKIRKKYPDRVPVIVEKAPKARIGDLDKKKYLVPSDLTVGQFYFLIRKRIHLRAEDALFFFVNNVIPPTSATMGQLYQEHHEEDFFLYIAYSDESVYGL
UniProt Q9BXW4, residues 1-126: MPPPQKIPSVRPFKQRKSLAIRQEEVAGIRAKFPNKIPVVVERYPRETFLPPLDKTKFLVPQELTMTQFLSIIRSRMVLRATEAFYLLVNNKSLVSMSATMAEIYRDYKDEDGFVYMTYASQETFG

What was measured:
MycBioID-TECPR1 (human) = MycBioID-TECPR1 (human) (UniProt Q7Z6L1); assay: proximity labelling; BioID: HeLa TECPR1^KO cells cotransfected with MycBioID-TECPR1 (wt or W175A/I178A) and HA-tagged hATG8s, 50 uM biotin for 24 h, lysates precipitated with streptavidin beads, blot with anti-HA
[1] = molecular target: T1, MycBioID-TECPR1^W175A/I178A (human) (UniProt Q7Z6L1); assay: as above
T1 sequence: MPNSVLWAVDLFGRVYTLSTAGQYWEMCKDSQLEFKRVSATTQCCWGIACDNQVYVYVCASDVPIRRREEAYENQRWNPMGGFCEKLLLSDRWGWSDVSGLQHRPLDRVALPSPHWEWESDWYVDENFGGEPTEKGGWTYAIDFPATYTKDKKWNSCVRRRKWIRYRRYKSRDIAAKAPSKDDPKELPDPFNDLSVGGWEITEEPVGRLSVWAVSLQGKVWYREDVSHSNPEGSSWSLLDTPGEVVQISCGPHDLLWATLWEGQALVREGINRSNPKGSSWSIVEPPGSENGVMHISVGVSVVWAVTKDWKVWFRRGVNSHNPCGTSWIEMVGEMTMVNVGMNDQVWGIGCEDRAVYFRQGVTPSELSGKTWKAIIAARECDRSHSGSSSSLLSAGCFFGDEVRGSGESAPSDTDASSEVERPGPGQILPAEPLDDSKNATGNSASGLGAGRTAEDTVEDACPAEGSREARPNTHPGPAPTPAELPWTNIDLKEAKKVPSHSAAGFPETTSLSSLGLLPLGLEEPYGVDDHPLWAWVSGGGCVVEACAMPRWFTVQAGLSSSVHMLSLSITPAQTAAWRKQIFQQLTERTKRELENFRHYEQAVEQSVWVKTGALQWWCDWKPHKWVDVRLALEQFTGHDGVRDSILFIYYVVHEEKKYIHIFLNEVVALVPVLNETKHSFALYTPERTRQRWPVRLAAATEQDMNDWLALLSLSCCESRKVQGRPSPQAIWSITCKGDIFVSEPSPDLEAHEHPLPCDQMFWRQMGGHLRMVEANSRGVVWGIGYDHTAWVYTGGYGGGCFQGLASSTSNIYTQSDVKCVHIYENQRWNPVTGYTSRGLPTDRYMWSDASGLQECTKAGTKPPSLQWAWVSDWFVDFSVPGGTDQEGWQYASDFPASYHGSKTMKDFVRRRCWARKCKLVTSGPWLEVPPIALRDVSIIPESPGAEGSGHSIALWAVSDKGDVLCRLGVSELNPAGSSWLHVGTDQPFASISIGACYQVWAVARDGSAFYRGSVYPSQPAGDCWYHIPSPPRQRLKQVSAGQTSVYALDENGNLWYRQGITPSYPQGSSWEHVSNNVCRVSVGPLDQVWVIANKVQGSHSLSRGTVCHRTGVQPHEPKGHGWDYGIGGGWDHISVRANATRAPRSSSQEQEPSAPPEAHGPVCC

binding (MycBioID-TECPR1 (human))	binding [1]	Substance
no binding	–	HA-GABARAPL2 (from UniProt P60520 1-117)
no binding	–	HA-LC3A (from UniProt Q9H492 1-121)
no binding	–	HA-GABARAP (from UniProt O95166 1-117)
binds	binds weakly	HA-LC3C (from UniProt Q9BXW4 1-126)

No constants are given. Whether binding was seen depends on the method and setting. In cells and extracts the contact can be indirect. Here binding means that the protein was enriched with, or labelled near, the bait; the list need not be complete. For some assays here: A no says only that the protein was not detected with the bait. For some assays here: Tags and fused reporters may be left off the sequences shown.
